# According to PubChem BioAssay AID488837 (National Center for Advancing Translational Sciences (NCATS), 2010):
# The chains behind the UniProt entries cited, without tags or fusion partners. Where a name states a change or a piece, a line headed by the entry shows the natural chain unless it says otherwise.
# UniProt O00167: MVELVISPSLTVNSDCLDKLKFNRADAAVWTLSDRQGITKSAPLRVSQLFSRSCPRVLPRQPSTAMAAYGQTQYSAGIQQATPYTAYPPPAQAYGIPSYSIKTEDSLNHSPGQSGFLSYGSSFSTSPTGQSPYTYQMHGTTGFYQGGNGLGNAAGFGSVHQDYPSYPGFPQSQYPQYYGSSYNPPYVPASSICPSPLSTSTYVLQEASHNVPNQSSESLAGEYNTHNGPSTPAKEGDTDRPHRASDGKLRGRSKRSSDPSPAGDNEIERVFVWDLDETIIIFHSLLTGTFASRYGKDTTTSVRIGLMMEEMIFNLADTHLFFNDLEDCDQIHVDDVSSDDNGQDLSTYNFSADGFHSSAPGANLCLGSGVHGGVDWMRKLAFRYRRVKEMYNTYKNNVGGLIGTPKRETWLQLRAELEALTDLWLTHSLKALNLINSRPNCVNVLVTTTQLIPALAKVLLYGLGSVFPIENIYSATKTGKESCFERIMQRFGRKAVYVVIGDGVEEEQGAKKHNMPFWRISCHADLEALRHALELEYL
# The whole screen tested about 330,000 compounds, of which about 20 (0.006%) were called active. Inconclusive results, whose numbers are uncertain, are shown with a selection of clear calls. Calls come from the whole dose curve; as a rule, active = well fitted inhibition curve with a large enough effect; inconclusive = small, poorly fitted or top-dose-only effect, or effect the other way; inactive = flat fitted curve, though single readings scatter. Potencies beside an inconclusive call are fits to weak or partial responses and may not hold up.
# Biological target: Protein phosphatase EYA2 (Homo sapiens) (UniProt O00167)
# Assay: qHTS Assay for Inhibitors of the Phosphatase Activity of Eya2
# Conditions: recombinant Eya2, OMFP fluorescence dephosphorylation (OMFP is methylfluorescein phosphate)
# In short: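 Eya2 (0.2 uM) preincubated 10 min at ambient with compound, then OMFP substrate added at 50 uM; 10 min reaction in 50 mM HEPES pH 7.5, 50 mM NaCl, 5 uM MgCl2, 0.05% BSA, 1 mM DTT. Fluorescence read at Ex 485/Em 525 nm.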
# Potency is the fitted concentration of half-maximal effect.
row,Structure (SMILES),Potency
1,COc1cc(/C=N/N(CCO)C2=NS(=O)(=O)c3ccccc32)cc(OC)c1OC,inactive
2,Cc1ccc(S(=O)(=O)N2CCC(c3nc4c(nnn4Cc4ccccc4)c(=O)[nH]3)CC2)cc1,"inconclusive: 112 µM [inhibitor, single point]"
3,O=C(NCc1ccccn1)C1CCCN(Cc2cnn(-c3ccccc3)c2-n2cccc2)C1 (configuration not stated),"inconclusive: 17.8 µM [inhibitor, partial curve, poor fit]"
4,CN(C)/C=C1\C(=O)N(c2ccc(Oc3ccccc3)cc2)CS1=O (configuration not stated),"inconclusive: 100 µM [inhibitor, single point]"
5,COc1ccccc1CNC(=O)[C@@H](NC(=O)C1CCN(C(=O)[C@@H]2CCCN2)CC1)C(C)C,"inconclusive: 708 µM [inhibitor, single point]"
6,CC(C)c1ccc(-c2noc(C3CCCN(S(C)(=O)=O)C3)n2)cc1 (configuration not stated),"inconclusive: 70.8 µM [inhibitor, single point]"
7,CCOc1ccc(NC(=O)C2CCC(CNc3c(N4CCC(C)CC4)c(=O)c3=O)CC2)cc1 (configuration not stated),"inconclusive: 178 µM [inhibitor, partial curve, poor fit]"
8,O=C(CSc1nc2nn(-c3ccccc3)c(=O)c-2c2n1CCCCC2)Nc1ccccc1[N+](=O)[O-],"inconclusive: 158 µM [inhibitor, partial curve, poor fit]"
9,Oc1ccc(/C=N/n2c(COc3ccccc3)n[nH]c2=S)c(O)c1,inactive
10,O=C(c1ccccc1)N1N=C(c2ccccc2)CC1c1ccccc1O (configuration not stated),"inconclusive: 89.1 µM [inhibitor, single point]"
11,Cc1ccc(C2=NCCn3c2c2ccc([N+](=O)[O-])cc2[n+]3[O-])cc1,inactive
12,CC1CCN(C(=S)c2ccc(N(C)C)cc2)CC1,"inconclusive: 79.4 µM [inhibitor, single point]"
13,CCc1ccc(S(=O)(=O)NCCc2csc(C)n2)s1,"inconclusive: 20 µM [inhibitor, single point]"
14,CCOC(=O)CCCn1ccc2cc(S(=O)(=O)N3CCCC3)ccc21,"inconclusive: 100 µM [inhibitor, single point]"
15,CSc1ccccc1COC(=O)Nc1ccccc1C,"inconclusive: 112 µM [inhibitor, single point]"
16,COc1cc(OC)c(C(=O)OCC(=O)N2CC(=O)Nc3ccccc32)cc1OC,"inconclusive: 15.8 µM [inhibitor, single point]"
17,CCN(CC)c1ccc(NC(=O)c2ccccn2)cc1S(=O)(=O)Nc1ccccc1OC,inactive
18,O=C1CCC(=O)N1CCSC(=S)N1CCSCC1,"inconclusive: 39.8 µM [inhibitor, partial curve]"
19,Cc1ccccc1Nc1ccc([N+](=O)[O-])cn1,"inconclusive: 100 µM [inhibitor, single point]"
20,CCOC(=O)CC1COc2ccccc2N1C(=O)c1ccc(F)cc1 (configuration not stated),"inconclusive: 141 µM [inhibitor, single point]"
21,CC(=O)Nc1ccc(S(=O)(=O)N(Cc2ccccc2)c2ccccn2)cc1,"inconclusive: 20 µM [inhibitor, single point]"

# Two entries drawn at random from the list so far, as already listed:
row,Structure (SMILES),Potency
6,CC(C)c1ccc(-c2noc(C3CCCN(S(C)(=O)=O)C3)n2)cc1 (configuration not stated),"inconclusive: 70.8 µM [inhibitor, single point]"
10,O=C(c1ccccc1)N1N=C(c2ccccc2)CC1c1ccccc1O (configuration not stated),"inconclusive: 89.1 µM [inhibitor, single point]"

# Next records:

row,Structure (SMILES),Potency
1,CC(C(=O)Nc1ccccc1-c1ccccc1)N(C)Cc1nc2ccccc2c(=O)[nH]1 (configuration not stated),inactive
2,COc1ccc(-c2cn3c(C)c(C(=O)N4CCc5ccccc5C4)sc3n2)cc1,"inconclusive: 25.1 µM [inhibitor, partial curve]"
3,O=C(O)c1ccccc1Sc1ccccc1S(=O)(=O)NC1CCCCC1,"inconclusive: 100 µM [inhibitor, single point]"
4,Cc1ccc(S(=O)(=O)N2[C@@H](c3ccc(Br)cc3)C(C(=O)O)=CC[C@H]2c2ccc(Cl)c(Cl)c2)cc1,inactive
5,CC(=O)Oc1ccc2c(c1)Oc1cc(OC(C)=O)ccc1C21OC(=O)c2ccccc21,"inconclusive: 15.8 µM [activator, partial curve]"
6,O=C(CN1C(=O)NC2NC(=O)NC21)N/N=C/c1ccccc1O (configuration not stated),inactive
7,COc1ccc(NC(=O)COCC(=O)Nc2ccc(C)cc2)cc1,"inconclusive: 2240 µM [inhibitor, single point]"
8,COc1cc(OC)cc(C(=O)Oc2ccc(/C=N/Nc3nc4ccccc4s3)cc2OC)c1,inactive
9,O=C(c1ccccc1)C1CCN(C(=O)c2c(F)cccc2F)CC1,"inconclusive: 79.4 µM [inhibitor, single point]"
10,CC(=O)c1c(C)[nH]c(C(=O)Nc2ccc(F)c(F)c2F)c1C,"inconclusive: 100 µM [inhibitor, single point]"
11,CN1CCCN(C2C3CC4CC(C3)CC2C4)CC1 (configuration not stated),"inconclusive: 28.2 µM [inhibitor, single point]"
12,C=CCN1C(=O)/C(=C/C(=O)OC)S/C1=N\NC(=O)c1ccccc1,"inconclusive: 158 µM [inhibitor, partial curve, poor fit]"
13,COc1cc(CCC(=O)OCC(=O)Nc2ccc(C(N)=O)cc2)cc(OC)c1OC,inactive
14,COc1ccc(/C=N/NC(=O)CN2CCCCCCC2)c(C)c1C,"inconclusive: 11.2 µM [inhibitor, single point]"
15,CCOC(=O)c1ccc(NS(=O)(=O)c2ccc(Cl)nc2)cc1,inactive
16,Cc1c(/C=C/C(=O)c2ccc(C(C)C)cc2)cnn1C,"inconclusive: 22.4 µM [inhibitor, single point]"
17,CC1CC(C)(C)NC(=S)N1CCC(=O)NCc1ccc(Cl)cc1 (configuration not stated),"inconclusive: 224 µM [inhibitor, single point]"
18,CCOC(=O)c1c(-n2cnnn2)sc2c1CCCC2,"inconclusive: 79.4 µM [inhibitor, single point]"
19,CCCCN(C)C1=CC2=CC(=C(C#N)C#N)CCC2CC1 (configuration not stated),"inconclusive: 15.8 µM [activator, partial curve]"
20,COC(=O)n1c(=O)oc2ccc(S(=O)(=O)N3CCCCC3)cc21,"inconclusive: 100 µM [inhibitor, single point]"
21,COc1ccc(-c2cc(C)no2)cc1S(=O)(=O)NCC(C)c1ccccc1 (configuration not stated),"inconclusive: 79.4 µM [inhibitor, single point]"
